In patent publication US20260250711A1:
Results are given in words; binding and its absence hold for the method and conditions named. Some results given as binding are weak or reduced against the parent protein; the word gives no strength.

Protein sequences, listed by entry. Tags and fused reporters are not part of them. Lines headed by an entry give the natural chain unless they say otherwise; changes in a name come on top.
UniProt P28799: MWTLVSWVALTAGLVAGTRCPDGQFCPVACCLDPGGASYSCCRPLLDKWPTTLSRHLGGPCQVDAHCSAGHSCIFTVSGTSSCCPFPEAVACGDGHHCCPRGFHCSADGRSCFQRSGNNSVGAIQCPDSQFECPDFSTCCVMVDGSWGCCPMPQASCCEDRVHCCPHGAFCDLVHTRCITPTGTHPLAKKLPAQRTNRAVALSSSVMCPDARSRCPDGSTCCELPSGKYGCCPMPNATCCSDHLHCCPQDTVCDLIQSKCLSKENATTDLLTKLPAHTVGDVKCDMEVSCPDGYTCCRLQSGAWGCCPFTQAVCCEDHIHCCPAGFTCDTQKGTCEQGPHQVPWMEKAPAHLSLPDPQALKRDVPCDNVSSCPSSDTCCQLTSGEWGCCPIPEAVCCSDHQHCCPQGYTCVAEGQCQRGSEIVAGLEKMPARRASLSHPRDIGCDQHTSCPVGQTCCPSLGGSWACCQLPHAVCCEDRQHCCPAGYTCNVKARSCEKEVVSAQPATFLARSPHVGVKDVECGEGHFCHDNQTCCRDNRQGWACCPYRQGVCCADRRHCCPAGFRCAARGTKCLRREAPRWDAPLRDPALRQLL

Assays:
[1] = target: T1, human prosaposin (PSAP), recombinant protein (human) (UniProt P07602); assay: Biacore sensorgrams, immobilized human PSAP from two sources
T1 sequence (looked up): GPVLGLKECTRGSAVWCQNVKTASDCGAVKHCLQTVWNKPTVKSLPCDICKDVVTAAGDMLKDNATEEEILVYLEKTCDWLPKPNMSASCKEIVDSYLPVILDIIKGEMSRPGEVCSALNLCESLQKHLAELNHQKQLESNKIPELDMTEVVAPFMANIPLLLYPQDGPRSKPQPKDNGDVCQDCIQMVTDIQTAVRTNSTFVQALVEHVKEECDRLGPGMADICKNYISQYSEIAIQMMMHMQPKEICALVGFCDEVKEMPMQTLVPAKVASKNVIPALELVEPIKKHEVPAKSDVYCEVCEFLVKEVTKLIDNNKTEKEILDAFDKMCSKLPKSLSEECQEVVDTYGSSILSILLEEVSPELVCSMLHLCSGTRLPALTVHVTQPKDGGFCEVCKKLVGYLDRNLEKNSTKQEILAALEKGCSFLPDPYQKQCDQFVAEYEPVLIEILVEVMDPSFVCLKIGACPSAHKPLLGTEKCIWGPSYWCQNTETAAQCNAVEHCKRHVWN

[2] = target: T1, human prosaposin (PSAP), recombinant protein (human); assay: Biacore (SPR), His-tagged PGRNΔ3 over immobilized human prosaposin from two sources
[3] = target: T1, human prosaposin (PSAP), recombinant protein (human); assay: Biacore (SPR), His-tagged PGRN over immobilized human prosaposin

binding [1]	binding [2]	binding [3]	Substance
binds	binds		recombinant human His-tagged progranulin lacking the final three carboxy-terminal amino acids (PGRNΔ3) (from UniProt P28799 18-590) (ligand)
binds		binds	recombinant human His-tagged full-length wild-type progranulin (PGRNwt) (from UniProt P28799 18-593) (ligand)
